The values that follow are results of earlier work, collected in patent publication US7220434B2, “Dual-release compositions of a cyclooxygenase-2 inhibitor” (Pharmacia Corporation (of Pfizer, Inc.), priority 2000, dated 2007).

The conditions of this data set: rat, oral; nanoparticulate (average particle size 240–300 nm) versus microparticulate (20–30 μm) dispersion.

For the compound `COc1ccc2cc([C@H](C)C(=O)O)ccc2c1` [naproxen], the “apparent rate of absorption” value was “higher”.
